# From PubChem BioAssay AID504467 (National Center for Advancing Translational Sciences (NCATS), 2011)
# In all, about 330,000 compounds went through this assay and about 7,700 (2.3%) were called active. This list was built around the results that the source calls inconclusive (neither active nor inactive); the mix of calls is not that of the screen. The call rests on the fitted dose curve; in most records, active means well fitted inhibition curve with a large enough effect; inconclusive means small, poorly fitted or top-dose-only effect, or effect the other way; inactive means flat fitted curve, though single readings scatter. A potency beside an inconclusive call is a rough fit, not a confirmed value.
# Assay: qHTS screen for small molecules that inhibit ELG1-dependent DNA repair in human embryonic kidney (HEK293T) cells expressing luciferase-tagged ELG1; further: nearly all actives have a fitted effect of over 55% in size
# Conditions: HEK293T ELG1-luciferase reporter, luminescence, 16 h, DNA damage induced by 5-fluorouridine; series mostly up to 46.1 µM
# In short: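 HEK293T cells expressing luciferase-tagged ELG1 (2,000/well) received 5-Fluorouridine plus compound or DMSO for 16 hr at 37 °C. Luciferase was read by ONE-Glo luminescence after 30 min at room temperature.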
# Potency means the concentration at half of the fitted maximal effect.
row,Compound,Potency
1,O=C(CCc1nnc(C2CCCCC2)o1)NCc1cccc(-n2cccn2)c1,inactive
2,Cc1ccccc1C1c2[nH]c3ccccc3c2C[C@H]2C(=O)N(c3ccccc3C(=O)NCCN3CCOCC3)C(=O)N12 (some centres not stated),"inconclusive: 0.517 µM [inhibitor, partial curve, poor fit]"
3,CC[C@@H](C)[C@@H](C(=O)N1CCN(C(=O)OC(C)(C)C)CC1)n1cc(CCCCNC(=O)OC(C)(C)C)nn1,active: 20.6 µM
4,CCc1ccc(-c2nc(CS(=O)CC(=O)O)c(C)o2)cc1 (configuration not stated),"inconclusive: 16.4 µM [activator, partial curve]"
5,CSc1nc(-c2ccco2)nn1C(=O)c1ccccc1,inactive
6,COc1ccc(C2/C=C\CN3CCC[C@H]3C(=O)N2Cc2ccc(F)cc2)cc1 (some centres not stated),inactive
7,COc1ccc([C@H]2CC(=O)C=C(c3ccccc3-c3ccccc3)C2)cc1,"inconclusive: 14.6 µM [inhibitor, partial curve]"
8,N#C/C(=N\Nc1c(Cl)cccc1Cl)C(=O)NN,"inconclusive: 18.4 µM [activator, single point]"
9,Cc1cc(SCc2ccccc2F)nc(=O)[nH]1,"inconclusive: 20.6 µM [activator, partial curve, poor fit]"
10,Cn1c(=O)c2c(ncn2CC(=O)OCC(=O)Nc2ccccc2Cl)n(C)c1=O,"inconclusive: 18.4 µM [activator, partial curve, poor fit]"
11,COc1cc(O)c2c(=O)cc(-c3ccccc3)oc2c1,"inconclusive: 16.4 µM [activator, single point]"
12,O=C(NNC(=O)c1cccc(Br)c1)Nc1ccc(Cl)cc1,"inconclusive: 10.3 µM [activator, partial curve, poor fit]"
13,COc1ccc(C2OC3=C(Nc4cc(C)c(C)cc4N3)C2=O)cc1 (configuration not stated),"inconclusive: 16.4 µM [activator, partial curve]"
14,C=CCOc1ccc(CNc2ccc(NC(=O)CCC)cc2)cc1OCC,"inconclusive: 25.9 µM [inhibitor, single point]"
15,CC(=O)Nc1ccccc1-c1nc2ccc(C(=O)N3CCN(c4ccccc4)CC3)cc2[nH]c1=O,inactive
16,COc1ccc(CCNC(=O)c2ccc(CS(=O)(=O)c3ccc(Cl)cc3)o2)cc1OC,"inconclusive: 11.2 µM [inhibitor, partial curve, poor fit]"
17,CCN(CC)c1ccc(/C=N/N2C(=O)c3ccccc3C2=O)c(O)c1,"inconclusive: 11.6 µM [activator, partial curve]"
18,Cc1ccc(NC(=O)c2csc3c2CCCC3)cc1,"inconclusive: 6.51 µM [activator, single point]"
19,O=C(O)c1ccc(O)cc1O,"inconclusive: 0.58 µM [activator, single point]"
20,COc1ccc2[nH]c3c(NCCN4CCCCC4)ncnc3c2c1,"inconclusive: 29.1 µM [inhibitor, single point]"
21,O=[N+]([O-])c1ccc(Nc2ccccc2)nc1,"inconclusive: 23.1 µM [activator, single point]"
22,CN(C)S(=O)(=O)c1cccc(NC(=O)COc2ccc(C(=O)c3ccccc3)cc2)c1,active: 13 µM
23,Cc1nn(CCOc2ccccc2)c(=O)n1-c1cccc(F)c1,"inconclusive: 14.6 µM [activator, single point]"

row,Compound,Potency
1,O=C(CNC(=O)C1COc2ccccc2O1)Nc1cc(Cl)ccc1Cl (configuration not stated),"inconclusive: 9.2 µM [activator, partial curve, poor fit]"
2,CC1CCCCC1NC(=O)C1CCN(C(=O)c2sccc2-n2cccc2)CC1 (configuration not stated),"inconclusive: 5.8 µM [inhibitor, single point]"
3,Cc1n[nH]c(C)c1CN(C)C(=O)C1CCC(=O)N(CC2CCCCC2)C1 (configuration not stated),inactive
4,COc1cc(/C=C/c2ccc3cccc(OC)c3n2)c(OC(C)=O)c([N+](=O)[O-])c1,"inconclusive: 20.6 µM [inhibitor, single point]"
5,Cc1cccc(NC(=O)COc2cccc3c2CCN(C)C3=O)c1C,"inconclusive: 25.9 µM [inhibitor, single point]"
6,CCOc1ccc(CN(C)C(=O)Cc2c[nH]c3ccccc23)cc1,inactive
7,Cc1ccccc1OCC(=O)NCC(c1cccs1)N1CCOCC1 (configuration not stated),inactive
8,COc1ccc2oc(=Nc3cc(F)ccc3F)c(C(N)=O)cc2c1,inactive
9,CC1c2cc3c(cc2CCN1C(=O)c1ccc(Br)cc1)OCCCO3 (configuration not stated),"inconclusive: 13 µM [inhibitor, partial curve]"
10,Cc1c(Cc2ccccc2)sc(/N=C/c2ccc3ccccc3c2)c1C(N)=O,"inconclusive: 29.1 µM [activator, single point]"
11,Cc1cc(-c2nnc(CCC(=O)N(CC3CCC3)CC3CCCO3)o2)no1 (configuration not stated),"inconclusive: 20.6 µM [activator, single point]"
12,CC1=CC2=NC(=O)/C(=C\c3cccn3CCOc3ccccc3)C(=N)N2O1,"inconclusive: 18.4 µM [inhibitor, single point]"
13,Cc1[nH]nc(N=CC2=C(O)CC(c3ccco3)CC2=O)c1-c1ccc(Cl)cc1 (configuration not stated),"inconclusive: 23.1 µM [inhibitor, partial curve, poor fit]"
14,CC(C)(C)n1nc2c(c1NC(=O)COc1ccc(Cl)cc1)CSC2,"inconclusive: 14.6 µM [inhibitor, partial curve, poor fit]"
15,O=C(N/N=C/C1CC2CCC1C2)c1ccc2c(c1)OCO2 (configuration not stated),"inconclusive: 18.4 µM [activator, partial curve, poor fit]"
16,COc1cc(CNc2cccc3[nH]c(C(F)(F)F)nc23)cc(OC)c1,"inconclusive: 18.3 µM [inhibitor, partial curve, poor fit]"
17,CCCCOc1ccc(C(=O)NCc2ccco2)cc1,"inconclusive: 10 µM [activator, single point]"
18,N/C(=N\OC(=O)c1ccc2ccccc2c1)c1ccncc1,"inconclusive: 10.3 µM [activator, partial curve]"
19,O=C(NCCOc1ccccc1)c1cc([N+](=O)[O-])ccc1N1CCOCC1,"inconclusive: 0.73 µM [inhibitor, partial curve, poor fit]"
20,Cc1ccc(NC(=S)N(CCN2CCOCC2)Cc2cc3cc4c(cc3[nH]c2=O)OCO4)cc1,inactive
21,Cn1nc(C(=O)Nc2sc3c(c2C#N)CCCC3)ccc1=O,"inconclusive: 23.1 µM [activator, partial curve]"
22,COc1ccc2c(c1)c1ncn(CCc3ccccc3)c(=O)c1n2C,"inconclusive: 16.4 µM [inhibitor, single point]"
23,CC(C)n1nnnc1SCC(=O)NCCc1ccccc1,"inconclusive: 16.4 µM [activator, partial curve, poor fit]"

row,Compound,Potency
1,CC1(C)Cc2ccccc2C2=NNC(=O)C2=N1,"inconclusive: 14.6 µM [inhibitor, partial curve, poor fit]"
2,COc1ccc(CNC(=O)CCCn2ccc3cc(S(=O)(=O)N4CCCC4)ccc32)cc1,"inconclusive: 23.1 µM [inhibitor, single point]"
3,CCc1nc2c(c(=O)c3ccccc3n2C)c(=O)n1C1CCCCCC1,"inconclusive: 29.1 µM [inhibitor, single point]"
4,CCN(CC)S(=O)(=O)c1cc(NC(=O)c2ccc(Br)s2)ccc1C,"inconclusive: 18.3 µM [inhibitor, partial curve]"
5,CCCCn1c(SCc2nc3ccccc3s2)nc2ccccc2c1=O,inactive
6,Cn1c2ccccc2c2cc(/C=N/NC(=O)c3cc(O)cc(O)c3)ccc21,inactive
7,O=c1cc(-c2ccccc2)nc(Cc2c(Cl)cccc2Cl)[nH]1,inactive
8,COc1cc(NC(=O)Cc2ccccc2)nc(OC)n1,inactive
9,CCN(CC)S(=O)(=O)c1cccc(NC(=O)c2cc(=O)[nH]c3ccccc23)c1,"inconclusive: 16.4 µM [inhibitor, single point]"
10,COc1ccc(NC(=O)c2sc(SC)nc2N)cc1,"inconclusive: 16.4 µM [activator, partial curve]"
11,CCN(CC)C(=O)CCc1nnc(CCc2c[nH]c3ccccc23)o1,"inconclusive: 14.6 µM [activator, partial curve, poor fit]"
12,COc1ccc(/C=C2\Sc3ccc(C(=O)N4CCN(Cc5ccccc5)CC4)cc3N(C)C2=O)cc1OC,active: 23.1 µM
13,CC1CCc2c(C(=O)Nc3cccc(-c4nn[nH]n4)c3)csc2C1 (configuration not stated),"inconclusive: 16.4 µM [activator, partial curve]"
14,CCn1nnc(NC(=O)c2cccc(-c3cc4ccccc4oc3=O)c2)n1,"inconclusive: 5.17 µM [activator, full curve, poor fit]"
15,Cc1ccc(NC2=NC(c3ccccc3)n3c(nc(C)cc3=O)N2)c(C)c1 (configuration not stated),inactive
16,COc1ccc(NC(=O)c2oc3ccccc3c2C)c(OC)c1,"inconclusive: 10 µM [activator, partial curve]"
17,CCOC(=O)c1c(N/N=C/c2ccncc2)n[nH]c1C,"inconclusive: 16.4 µM [activator, single point]"
18,O=C(C[C@H]1C/C=C\C[C@H](NC(=O)OCC2c3ccccc3-c3ccccc32)C(=O)OC[C@@H]2CCCN2C1=O)NCCO,inactive
19,O=C(Cc1n[nH]c(=O)c2ccccc12)Nc1cccc(S(=O)(=O)N2CCCCCC2)c1,"inconclusive: 29.1 µM [inhibitor, single point]"
20,CC(C)CNC(=O)CCc1nc(-c2ccccc2)no1,"inconclusive: 16.4 µM [activator, partial curve, poor fit]"
21,O=C(CCC(=O)n1ncc2ccccc21)N1CCCCC1,"inconclusive: 29.1 µM [activator, single point]"

# 19 of the compounds above, bar-delimited:
row | Compound | Potency
23 | CC(C)n1nnnc1SCC(=O)NCCc1ccccc1 | inconclusive: 16.4 µM [activator, partial curve, poor fit]
1 | CC1(C)Cc2ccccc2C2=NNC(=O)C2=N1 | inconclusive: 14.6 µM [inhibitor, partial curve, poor fit]
2 | COc1ccc(CNC(=O)CCCn2ccc3cc(S(=O)(=O)N4CCCC4)ccc32)cc1 | inconclusive: 23.1 µM [inhibitor, single point]
3 | CCc1nc2c(c(=O)c3ccccc3n2C)c(=O)n1C1CCCCCC1 | inconclusive: 29.1 µM [inhibitor, single point]
5 | CCCCn1c(SCc2nc3ccccc3s2)nc2ccccc2c1=O | inactive
6 | Cn1c2ccccc2c2cc(/C=N/NC(=O)c3cc(O)cc(O)c3)ccc21 | inactive
7 | O=c1cc(-c2ccccc2)nc(Cc2c(Cl)cccc2Cl)[nH]1 | inactive
8 | COc1cc(NC(=O)Cc2ccccc2)nc(OC)n1 | inactive
9 | CCN(CC)S(=O)(=O)c1cccc(NC(=O)c2cc(=O)[nH]c3ccccc23)c1 | inconclusive: 16.4 µM [inhibitor, single point]
10 | COc1ccc(NC(=O)c2sc(SC)nc2N)cc1 | inconclusive: 16.4 µM [activator, partial curve]
11 | CCN(CC)C(=O)CCc1nnc(CCc2c[nH]c3ccccc23)o1 | inconclusive: 14.6 µM [activator, partial curve, poor fit]
12 | COc1ccc(/C=C2\Sc3ccc(C(=O)N4CCN(Cc5ccccc5)CC4)cc3N(C)C2=O)cc1OC | active: 23.1 µM
13 | CC1CCc2c(C(=O)Nc3cccc(-c4nn[nH]n4)c3)csc2C1 (configuration not stated) | inconclusive: 16.4 µM [activator, partial curve]
14 | CCn1nnc(NC(=O)c2cccc(-c3cc4ccccc4oc3=O)c2)n1 | inconclusive: 5.17 µM [activator, full curve, poor fit]
17 | CCOC(=O)c1c(N/N=C/c2ccncc2)n[nH]c1C | inconclusive: 16.4 µM [activator, single point]
18 | O=C(C[C@H]1C/C=C\C[C@H](NC(=O)OCC2c3ccccc3-c3ccccc32)C(=O)OC[C@@H]2CCCN2C1=O)NCCO | inactive
19 | O=C(Cc1n[nH]c(=O)c2ccccc12)Nc1cccc(S(=O)(=O)N2CCCCCC2)c1 | inconclusive: 29.1 µM [inhibitor, single point]
20 | CC(C)CNC(=O)CCc1nc(-c2ccccc2)no1 | inconclusive: 16.4 µM [activator, partial curve, poor fit]
21 | O=C(CCC(=O)n1ncc2ccccc21)N1CCCCC1 | inconclusive: 29.1 µM [activator, single point]
